Assay results taken from the supplement of paper PMC11732987, “Enantioselective OTUD7B fragment discovery through chemoproteomics screening and high-throughput optimisation” (Communications Chemistry, 2025).
The other results are listed elsewhere or left out. The data scatter; read single values as rough.

Chains of the proteins cited; added tags and fusions are not shown. Lines headed by an entry give the natural chain unless they say otherwise; changes in a name come on top.
UniProt Q9ULW0: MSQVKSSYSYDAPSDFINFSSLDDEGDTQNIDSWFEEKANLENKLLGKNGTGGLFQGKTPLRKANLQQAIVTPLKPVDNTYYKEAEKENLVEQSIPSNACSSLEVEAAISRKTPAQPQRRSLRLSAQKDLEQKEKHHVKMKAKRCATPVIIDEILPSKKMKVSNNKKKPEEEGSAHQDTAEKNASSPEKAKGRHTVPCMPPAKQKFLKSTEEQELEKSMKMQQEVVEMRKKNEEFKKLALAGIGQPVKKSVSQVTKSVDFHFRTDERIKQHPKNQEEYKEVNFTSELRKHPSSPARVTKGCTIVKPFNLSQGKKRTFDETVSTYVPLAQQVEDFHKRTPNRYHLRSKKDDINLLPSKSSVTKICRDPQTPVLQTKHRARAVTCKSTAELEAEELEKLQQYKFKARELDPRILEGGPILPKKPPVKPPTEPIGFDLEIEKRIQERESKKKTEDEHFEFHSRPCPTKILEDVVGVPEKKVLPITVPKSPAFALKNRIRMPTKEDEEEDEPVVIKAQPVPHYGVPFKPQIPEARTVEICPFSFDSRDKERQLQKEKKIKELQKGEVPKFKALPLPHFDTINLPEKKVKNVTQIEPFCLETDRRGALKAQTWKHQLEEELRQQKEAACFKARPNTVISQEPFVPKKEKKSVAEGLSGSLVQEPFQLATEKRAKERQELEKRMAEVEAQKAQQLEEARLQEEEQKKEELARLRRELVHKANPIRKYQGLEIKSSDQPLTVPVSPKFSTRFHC
UniProt P11388: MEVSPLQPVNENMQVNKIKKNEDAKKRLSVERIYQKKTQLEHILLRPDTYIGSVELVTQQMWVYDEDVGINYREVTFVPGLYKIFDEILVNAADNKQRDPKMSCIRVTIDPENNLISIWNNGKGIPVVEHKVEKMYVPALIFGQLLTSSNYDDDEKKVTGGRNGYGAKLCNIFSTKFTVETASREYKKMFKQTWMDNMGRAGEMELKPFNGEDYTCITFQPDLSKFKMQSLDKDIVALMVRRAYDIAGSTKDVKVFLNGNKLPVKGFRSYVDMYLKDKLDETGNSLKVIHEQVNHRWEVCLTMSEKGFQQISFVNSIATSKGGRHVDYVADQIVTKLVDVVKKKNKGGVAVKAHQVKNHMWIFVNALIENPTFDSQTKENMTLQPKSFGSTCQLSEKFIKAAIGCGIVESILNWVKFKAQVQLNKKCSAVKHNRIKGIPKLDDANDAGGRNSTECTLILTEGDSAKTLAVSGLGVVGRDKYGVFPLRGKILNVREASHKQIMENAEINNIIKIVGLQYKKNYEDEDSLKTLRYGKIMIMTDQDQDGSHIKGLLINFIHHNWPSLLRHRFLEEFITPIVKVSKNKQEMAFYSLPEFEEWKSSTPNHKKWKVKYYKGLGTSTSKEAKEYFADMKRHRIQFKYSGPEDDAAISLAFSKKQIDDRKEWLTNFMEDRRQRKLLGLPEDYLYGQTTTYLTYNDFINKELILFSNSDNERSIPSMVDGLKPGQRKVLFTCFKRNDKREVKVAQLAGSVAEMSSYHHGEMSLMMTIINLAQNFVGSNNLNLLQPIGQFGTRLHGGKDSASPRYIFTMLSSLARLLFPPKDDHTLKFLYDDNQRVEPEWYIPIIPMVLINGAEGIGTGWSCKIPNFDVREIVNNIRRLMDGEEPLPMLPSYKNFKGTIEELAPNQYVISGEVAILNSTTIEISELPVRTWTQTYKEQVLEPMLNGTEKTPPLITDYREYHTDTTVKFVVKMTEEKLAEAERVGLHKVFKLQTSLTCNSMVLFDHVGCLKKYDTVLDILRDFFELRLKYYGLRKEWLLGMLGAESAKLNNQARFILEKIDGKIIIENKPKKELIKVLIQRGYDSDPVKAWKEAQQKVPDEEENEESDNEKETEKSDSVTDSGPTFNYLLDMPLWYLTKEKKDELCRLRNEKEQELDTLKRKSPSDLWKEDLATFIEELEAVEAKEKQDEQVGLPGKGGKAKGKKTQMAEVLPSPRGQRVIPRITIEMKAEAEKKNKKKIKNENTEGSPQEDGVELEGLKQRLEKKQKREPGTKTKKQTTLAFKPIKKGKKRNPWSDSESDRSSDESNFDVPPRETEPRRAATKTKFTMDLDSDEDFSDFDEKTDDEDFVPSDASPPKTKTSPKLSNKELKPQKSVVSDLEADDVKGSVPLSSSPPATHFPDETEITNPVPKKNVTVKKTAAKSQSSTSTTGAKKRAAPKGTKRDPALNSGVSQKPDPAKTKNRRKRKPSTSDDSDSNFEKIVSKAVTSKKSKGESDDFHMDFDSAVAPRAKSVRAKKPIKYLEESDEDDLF
UniProt O14545: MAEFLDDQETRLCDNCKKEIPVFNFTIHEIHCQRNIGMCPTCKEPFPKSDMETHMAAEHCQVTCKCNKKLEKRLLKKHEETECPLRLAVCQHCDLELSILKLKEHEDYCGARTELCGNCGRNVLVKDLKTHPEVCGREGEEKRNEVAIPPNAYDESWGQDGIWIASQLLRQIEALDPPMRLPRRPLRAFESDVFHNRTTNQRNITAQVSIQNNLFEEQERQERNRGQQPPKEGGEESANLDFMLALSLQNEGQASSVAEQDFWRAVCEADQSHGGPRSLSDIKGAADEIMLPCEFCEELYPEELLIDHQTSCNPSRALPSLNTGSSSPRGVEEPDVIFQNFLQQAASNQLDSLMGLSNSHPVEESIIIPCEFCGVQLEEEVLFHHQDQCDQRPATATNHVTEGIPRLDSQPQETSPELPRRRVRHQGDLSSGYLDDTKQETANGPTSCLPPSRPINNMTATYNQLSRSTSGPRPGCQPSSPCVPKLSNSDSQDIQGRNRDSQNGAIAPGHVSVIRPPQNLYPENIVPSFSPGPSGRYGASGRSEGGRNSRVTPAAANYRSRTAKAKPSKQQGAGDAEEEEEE
UniProt Q9UPQ9, whole entry, looked up: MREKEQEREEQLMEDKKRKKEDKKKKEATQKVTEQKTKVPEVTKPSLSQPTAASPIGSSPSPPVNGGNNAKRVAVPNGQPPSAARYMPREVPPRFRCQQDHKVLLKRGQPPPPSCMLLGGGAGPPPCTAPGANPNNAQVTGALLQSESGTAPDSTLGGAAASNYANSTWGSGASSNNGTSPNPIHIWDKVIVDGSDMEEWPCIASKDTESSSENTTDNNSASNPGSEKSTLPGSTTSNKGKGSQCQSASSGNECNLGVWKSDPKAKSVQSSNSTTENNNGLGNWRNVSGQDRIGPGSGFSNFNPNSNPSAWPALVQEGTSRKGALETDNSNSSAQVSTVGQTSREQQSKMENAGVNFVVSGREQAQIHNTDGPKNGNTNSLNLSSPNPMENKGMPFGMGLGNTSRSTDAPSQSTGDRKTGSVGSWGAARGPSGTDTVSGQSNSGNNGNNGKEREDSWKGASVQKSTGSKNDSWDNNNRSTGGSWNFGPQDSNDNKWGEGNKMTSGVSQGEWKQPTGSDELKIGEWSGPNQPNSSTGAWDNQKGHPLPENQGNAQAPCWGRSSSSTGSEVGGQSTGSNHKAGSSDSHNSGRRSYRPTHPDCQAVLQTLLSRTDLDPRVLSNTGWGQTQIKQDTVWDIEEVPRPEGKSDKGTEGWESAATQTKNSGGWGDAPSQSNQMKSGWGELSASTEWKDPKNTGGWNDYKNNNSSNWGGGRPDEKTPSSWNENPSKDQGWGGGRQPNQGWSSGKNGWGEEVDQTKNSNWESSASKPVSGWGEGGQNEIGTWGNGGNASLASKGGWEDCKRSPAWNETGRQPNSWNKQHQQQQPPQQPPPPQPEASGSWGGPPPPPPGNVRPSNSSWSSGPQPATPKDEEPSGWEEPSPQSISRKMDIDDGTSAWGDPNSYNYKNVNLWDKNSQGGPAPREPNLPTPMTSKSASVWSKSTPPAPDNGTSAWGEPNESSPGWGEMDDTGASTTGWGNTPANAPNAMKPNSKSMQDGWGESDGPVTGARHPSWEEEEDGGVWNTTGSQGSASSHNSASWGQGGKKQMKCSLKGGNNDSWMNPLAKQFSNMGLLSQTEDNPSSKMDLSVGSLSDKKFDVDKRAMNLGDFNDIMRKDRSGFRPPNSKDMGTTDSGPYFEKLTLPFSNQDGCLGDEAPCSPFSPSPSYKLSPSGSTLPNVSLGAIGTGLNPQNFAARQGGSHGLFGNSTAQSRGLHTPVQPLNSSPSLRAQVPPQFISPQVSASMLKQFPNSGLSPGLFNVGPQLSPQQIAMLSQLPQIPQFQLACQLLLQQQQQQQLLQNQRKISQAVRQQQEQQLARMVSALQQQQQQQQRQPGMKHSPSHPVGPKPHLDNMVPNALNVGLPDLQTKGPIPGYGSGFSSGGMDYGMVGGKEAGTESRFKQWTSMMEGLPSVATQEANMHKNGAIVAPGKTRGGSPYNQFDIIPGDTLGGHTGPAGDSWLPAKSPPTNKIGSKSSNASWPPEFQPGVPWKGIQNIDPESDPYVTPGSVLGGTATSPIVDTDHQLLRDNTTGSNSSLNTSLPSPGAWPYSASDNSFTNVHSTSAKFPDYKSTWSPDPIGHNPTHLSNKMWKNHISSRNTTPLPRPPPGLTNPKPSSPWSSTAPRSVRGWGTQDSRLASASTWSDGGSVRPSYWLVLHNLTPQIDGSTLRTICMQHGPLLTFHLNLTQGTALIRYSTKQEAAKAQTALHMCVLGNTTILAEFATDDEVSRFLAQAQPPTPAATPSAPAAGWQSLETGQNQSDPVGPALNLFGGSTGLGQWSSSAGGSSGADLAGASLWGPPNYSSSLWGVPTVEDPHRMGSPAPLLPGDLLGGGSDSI
UniProt P60174: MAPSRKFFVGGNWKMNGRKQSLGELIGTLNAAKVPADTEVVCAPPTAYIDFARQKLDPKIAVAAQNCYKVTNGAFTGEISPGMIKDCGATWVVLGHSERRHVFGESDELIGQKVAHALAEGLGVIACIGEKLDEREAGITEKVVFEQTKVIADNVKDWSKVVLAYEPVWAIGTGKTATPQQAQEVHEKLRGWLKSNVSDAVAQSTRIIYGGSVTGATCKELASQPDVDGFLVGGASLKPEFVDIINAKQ
UniProt O14787: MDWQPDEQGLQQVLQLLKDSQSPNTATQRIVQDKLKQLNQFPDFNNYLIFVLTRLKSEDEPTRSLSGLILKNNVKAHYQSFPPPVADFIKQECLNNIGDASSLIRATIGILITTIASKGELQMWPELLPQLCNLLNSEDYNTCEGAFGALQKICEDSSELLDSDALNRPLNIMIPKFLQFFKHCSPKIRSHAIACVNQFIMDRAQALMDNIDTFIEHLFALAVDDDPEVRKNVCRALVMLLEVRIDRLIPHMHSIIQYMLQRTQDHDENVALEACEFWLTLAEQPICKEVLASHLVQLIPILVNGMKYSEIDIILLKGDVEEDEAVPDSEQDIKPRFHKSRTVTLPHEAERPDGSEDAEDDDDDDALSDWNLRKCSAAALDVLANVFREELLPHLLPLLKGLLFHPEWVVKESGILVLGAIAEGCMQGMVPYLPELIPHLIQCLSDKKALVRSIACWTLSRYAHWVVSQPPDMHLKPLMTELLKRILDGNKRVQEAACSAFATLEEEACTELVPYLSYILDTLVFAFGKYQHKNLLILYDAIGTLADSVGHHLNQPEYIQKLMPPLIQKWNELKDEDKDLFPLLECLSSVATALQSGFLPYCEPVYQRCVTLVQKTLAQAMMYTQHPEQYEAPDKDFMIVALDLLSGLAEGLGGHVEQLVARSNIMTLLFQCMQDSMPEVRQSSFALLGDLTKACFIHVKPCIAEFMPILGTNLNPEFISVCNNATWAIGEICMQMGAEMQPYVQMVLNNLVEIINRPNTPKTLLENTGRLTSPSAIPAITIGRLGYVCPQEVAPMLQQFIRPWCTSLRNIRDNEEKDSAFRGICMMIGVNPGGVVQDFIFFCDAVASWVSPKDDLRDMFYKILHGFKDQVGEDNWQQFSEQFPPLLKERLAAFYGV
UniProt O43734: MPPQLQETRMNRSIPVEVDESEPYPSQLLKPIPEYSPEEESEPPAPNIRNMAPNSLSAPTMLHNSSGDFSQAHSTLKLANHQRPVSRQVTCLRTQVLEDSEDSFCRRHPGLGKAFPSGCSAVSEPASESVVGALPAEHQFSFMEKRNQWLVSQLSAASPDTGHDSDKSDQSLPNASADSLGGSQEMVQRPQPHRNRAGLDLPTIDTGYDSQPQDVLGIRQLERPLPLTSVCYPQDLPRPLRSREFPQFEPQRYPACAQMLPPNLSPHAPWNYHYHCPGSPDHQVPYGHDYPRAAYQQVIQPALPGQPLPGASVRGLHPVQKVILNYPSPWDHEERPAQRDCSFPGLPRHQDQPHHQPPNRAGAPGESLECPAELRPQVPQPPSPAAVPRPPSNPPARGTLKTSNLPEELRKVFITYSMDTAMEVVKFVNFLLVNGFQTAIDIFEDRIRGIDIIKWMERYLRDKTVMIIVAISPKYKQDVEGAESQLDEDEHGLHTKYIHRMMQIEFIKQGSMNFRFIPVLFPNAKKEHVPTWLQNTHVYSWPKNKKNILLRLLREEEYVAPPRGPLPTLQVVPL

Key:
[1] = compound: ClCC(=O)N[C@@H]1CCCc2ccccc12; test: log2 mean competition ratio of IA-DTB cysteine labelling (DMSO/compound) (log2 ratio); higher = stronger cysteine engagement by compound; details: treatment time: 4 h, cell line lysate: HEK293T
Procedure: (§1)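 IA-DTB competitive cysteine chemoproteomics in HEK293T RIPA lysate. Lysates were treated with compound 29 or 30 at 50 or 200 µM for 4 h, then IA-DTB (500 µM, 1 h), trypsin-digested, NeutrAvidin-enriched and analysed by diaPASEF. Competition ratio = intensity DMSO / intensity compound (n=4 treated, n=64 DMSO); binding: mean log2 CR ≥ 1 and p ≤ 0.05 plus QC filters. Target is the cysteine site.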

[2] = compound: ClCC(=O)N[C@H]1CCCc2ccccc12; test: as above; details: treatment time: 4 h, cell line lysate: HEK293T
Procedure: as §1

Target	log2 mean competition ratio ([1]; 50 µM)	log2 mean competition ratio ([1]; 200 µM)	log2 mean competition ratio ([2]; 50 µM)	log2 mean competition ratio ([2]; 200 µM)
TRAPPC11 C481 (UniProt Q7Z392)	-0.0756	-0.333	-0.117	-0.31
TRAK1 C698	0.266	0.0542	0.164	-0.095
TPX2 C594 (UniProt Q9ULW0)	-0.0555	-0.131	0.125	0.101
TRAF7 C426 (UniProt Q6Q0C0)	-0.0745	-0.134	0.00716	-0.26
TLN1 C116 (UniProt Q9Y490)	0.0246	-0.623	-0.07	-0.419
TOP2A C392 (UniProt P11388)	0.293	0.634	0.195	0.691
TK1 C66	-0.0688	0.0109	-0.0498	-0.0332
TMLHE C103 (UniProt Q9NVH6)	-0.0659	0.564	-0.169	0.0465
TNFRSF10D C244 (UniProt Q9UBN6)	-0.233	0.239	-0.168	-0.0138
TRAFD1 C109 (UniProt O14545)	-0.261	-0.167	0.0908	0.0289
TRIM41 C227 (UniProt Q8WV44)	0.214	-0.0117	0.265	0.119
TOPBP1 C1337 (UniProt Q92547)	0.182	-0.14	0.107	-0.0176
TNRC6B C800 (UniProt Q9UPQ9)	-0.136	-0.0315	0.715	0.032
TRAF2 C182 (UniProt Q12933)	-0.0303	-0.103	-0.129	0.0771
TRIO C1207 (UniProt O75962)		0.535	0.214	-0.0915
TIMM29 C46 (UniProt Q9BSF4)	-0.295	0.0274	-0.274	0.203
TPI1 C87 (UniProt P60174)	-0.0175	-0.00222	-0.247	-0.0883
TNPO2 C609 (UniProt O14787)	0.0469	-0.233	0.196	-0.164
TOP2A C170 (UniProt P11388)	0.451	0.0174	0.106	-0.0178
TRAPPC12 C731 (UniProt Q8WVT3)	-0.086	0.0183	-0.27	0.0631
TMEM87B C129 (UniProt Q96K49)	-0.0462	0.11	0.0815	0.371
TIPIN C139 (UniProt Q9BVW5)	0.403	-0.221	-0.138	-0.116
TMEM214 C377 (UniProt Q6NUQ4)	-0.24	-0.0723	0.0446	0.0124
TRIM33 C943	-0.0469	-0.067	-0.125	-0.219
TRIP12 C332 (UniProt Q14669)	0.225	0.0989	0.161	0.125
TRAK1 C713	-0.061	-0.0838	0.307	-0.00611
TMLHE C393 (UniProt Q9NVH6)	0.135	0.0387	0.241	-0.0615
TLE2 C261 (UniProt Q04725)	-0.121	-0.3	-0.197	0.066
TRAF3IP2 C341 (UniProt O43734)	0.322	0.119	-0.18	0.291
TMA16 C162 (UniProt Q96EY4)	0.104	-0.422	0.285	-0.366

As a working copy, some entries already given:
Target	log2 mean competition ratio ([1]; 50 µM)	log2 mean competition ratio ([1]; 200 µM)	log2 mean competition ratio ([2]; 50 µM)	log2 mean competition ratio ([2]; 200 µM)
TOPBP1 C1337 (UniProt Q92547)	0.182	-0.14	0.107	-0.0176
TNRC6B C800 (UniProt Q9UPQ9)	-0.136	-0.0315	0.715	0.032
TRAF2 C182 (UniProt Q12933)	-0.0303	-0.103	-0.129	0.0771
TRIO C1207 (UniProt O75962)		0.535	0.214	-0.0915
TIMM29 C46 (UniProt Q9BSF4)	-0.295	0.0274	-0.274	0.203
TPI1 C87 (UniProt P60174)	-0.0175	-0.00222	-0.247	-0.0883
TNPO2 C609 (UniProt O14787)	0.0469	-0.233	0.196	-0.164
TOP2A C170 (UniProt P11388)	0.451	0.0174	0.106	-0.0178
